Several values for one entry are separate records, joined by “and”; a condition that tells them apart may be missing. Identical values can stand only once. The name of at least one read-out is uncertain.
System: XL2 cells
Experiment: FACS analysis, % of cells blocked in G2/M in XL2 cell cultures
Type: cell-based, Xenopus
Details: 137 μM, 0.5 h
Method: The molecules synthesized were tested in vitro on the proteolytic activities described of the proteasome, then in vivo on Xenopus (XL2) cell cultures. Knowledge of the cell cycle of XL2 cells has made it possible to carry out synchronization experiments and also to evaluate the duration of each of the phases of the cycle. […]

For CC(C)CN(CC(=O)N(CC(C)C)NC(=O)CBr)NC(=O)OC(C)(C)C [P14, Boc-N^αhLeu-N-azaLeu-CH2Br], the “% of cells blocked in G2/M” value was 37.9% and 42.8%.
